Compound in the test: Nc1ncnc2c1ncn2[C@@H]1O[C@H](COP(=O)(O)OP(=O)(O)OP(=O)(O)O)[C@@H](O)[C@H]1O [adenosine triphosphate]
Kind of test: NP40-soluble protein abundance relative to vehicle (solubility fold change) (ratio); higher = more soluble protein in presence of ATP. A digest of the protocol: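 Crude Jurkat lysate, prepared by Dounce homogenisation, was exposed to eight concentrations from 0.1 to 10 mM for 10 min at room temperature and then 3 min at 37 °C. Solubilisation used 0.8% NP40 with benzonase for 60 min at 4 °C, followed by ultracentrifugation and TMT labelling of the supernatant for LC-MS/MS. After vsn normalisation of intensities, each value is the fold change against the detergent-processed vehicle within each replicate, across three independent experiments.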

Sequences of proteins named here, by UniProt entry; tags and fusion partners are left off. A change or cut given only in a name is not applied to a line headed by its entry.
UniProt Q8TDR2: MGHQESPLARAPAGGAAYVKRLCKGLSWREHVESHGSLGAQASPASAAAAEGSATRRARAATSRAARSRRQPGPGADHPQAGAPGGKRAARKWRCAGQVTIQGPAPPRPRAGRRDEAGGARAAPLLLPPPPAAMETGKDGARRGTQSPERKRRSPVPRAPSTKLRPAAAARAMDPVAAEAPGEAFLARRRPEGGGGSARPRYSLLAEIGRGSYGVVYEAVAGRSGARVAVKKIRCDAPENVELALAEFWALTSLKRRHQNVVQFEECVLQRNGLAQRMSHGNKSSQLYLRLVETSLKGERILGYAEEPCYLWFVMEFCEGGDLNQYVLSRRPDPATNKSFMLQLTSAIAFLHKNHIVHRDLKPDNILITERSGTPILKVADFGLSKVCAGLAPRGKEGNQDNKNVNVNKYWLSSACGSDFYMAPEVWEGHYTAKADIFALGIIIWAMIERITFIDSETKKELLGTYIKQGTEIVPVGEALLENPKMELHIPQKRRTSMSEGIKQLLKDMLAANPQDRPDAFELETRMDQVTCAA
UniProt Q15025: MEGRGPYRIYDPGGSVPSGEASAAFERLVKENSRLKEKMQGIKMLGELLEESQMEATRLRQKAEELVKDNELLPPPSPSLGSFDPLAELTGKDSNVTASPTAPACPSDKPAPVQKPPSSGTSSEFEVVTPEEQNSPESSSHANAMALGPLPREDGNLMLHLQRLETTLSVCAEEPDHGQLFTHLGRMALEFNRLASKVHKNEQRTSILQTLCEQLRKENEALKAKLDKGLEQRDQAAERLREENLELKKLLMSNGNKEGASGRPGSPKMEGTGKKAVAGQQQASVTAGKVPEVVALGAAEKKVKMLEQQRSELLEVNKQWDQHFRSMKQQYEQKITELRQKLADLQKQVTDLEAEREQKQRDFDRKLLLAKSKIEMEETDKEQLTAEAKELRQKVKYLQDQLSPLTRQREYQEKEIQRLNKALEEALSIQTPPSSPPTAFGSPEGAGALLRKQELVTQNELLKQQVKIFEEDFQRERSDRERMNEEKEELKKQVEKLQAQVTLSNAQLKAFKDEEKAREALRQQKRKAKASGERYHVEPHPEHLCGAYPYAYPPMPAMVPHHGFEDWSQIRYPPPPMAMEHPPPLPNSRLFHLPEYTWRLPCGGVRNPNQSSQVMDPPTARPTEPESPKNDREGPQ
UniProt P57737: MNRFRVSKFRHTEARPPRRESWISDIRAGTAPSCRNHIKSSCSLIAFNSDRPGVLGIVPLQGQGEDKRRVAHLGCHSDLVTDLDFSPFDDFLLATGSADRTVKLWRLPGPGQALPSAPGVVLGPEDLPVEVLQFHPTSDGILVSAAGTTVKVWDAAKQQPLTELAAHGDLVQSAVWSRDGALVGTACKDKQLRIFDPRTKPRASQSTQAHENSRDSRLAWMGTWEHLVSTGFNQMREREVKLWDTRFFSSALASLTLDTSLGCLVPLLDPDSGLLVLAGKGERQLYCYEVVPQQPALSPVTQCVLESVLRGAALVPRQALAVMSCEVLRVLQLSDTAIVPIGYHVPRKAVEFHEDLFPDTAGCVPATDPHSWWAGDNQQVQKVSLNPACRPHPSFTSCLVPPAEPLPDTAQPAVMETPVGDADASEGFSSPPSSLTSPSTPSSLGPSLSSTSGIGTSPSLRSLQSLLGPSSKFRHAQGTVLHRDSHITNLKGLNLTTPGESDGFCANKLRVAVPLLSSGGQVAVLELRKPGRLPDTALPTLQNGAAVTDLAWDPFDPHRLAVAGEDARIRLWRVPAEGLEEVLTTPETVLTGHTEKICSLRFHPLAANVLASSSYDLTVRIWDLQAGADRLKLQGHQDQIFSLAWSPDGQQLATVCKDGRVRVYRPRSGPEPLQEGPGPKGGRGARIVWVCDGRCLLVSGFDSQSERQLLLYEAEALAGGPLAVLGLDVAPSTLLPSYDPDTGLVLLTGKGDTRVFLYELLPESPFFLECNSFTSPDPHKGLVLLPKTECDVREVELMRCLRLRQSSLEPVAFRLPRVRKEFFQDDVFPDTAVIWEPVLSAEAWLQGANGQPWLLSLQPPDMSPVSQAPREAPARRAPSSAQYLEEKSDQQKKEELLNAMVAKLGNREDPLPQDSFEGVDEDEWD
UniProt Q8IXJ6: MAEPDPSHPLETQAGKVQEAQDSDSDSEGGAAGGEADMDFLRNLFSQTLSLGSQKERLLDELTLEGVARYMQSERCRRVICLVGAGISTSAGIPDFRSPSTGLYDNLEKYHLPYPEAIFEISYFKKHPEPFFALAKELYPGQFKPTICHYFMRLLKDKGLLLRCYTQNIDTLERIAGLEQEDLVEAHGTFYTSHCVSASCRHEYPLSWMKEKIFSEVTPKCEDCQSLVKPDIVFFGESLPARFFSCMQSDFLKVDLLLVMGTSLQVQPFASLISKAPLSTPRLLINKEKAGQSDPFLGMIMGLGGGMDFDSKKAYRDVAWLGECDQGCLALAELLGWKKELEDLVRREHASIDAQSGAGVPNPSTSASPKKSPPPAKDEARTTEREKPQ
UniProt Q9H299: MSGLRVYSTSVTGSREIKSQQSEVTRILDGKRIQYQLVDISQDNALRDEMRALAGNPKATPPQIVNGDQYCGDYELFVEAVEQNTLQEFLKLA
UniProt Q5TAX3: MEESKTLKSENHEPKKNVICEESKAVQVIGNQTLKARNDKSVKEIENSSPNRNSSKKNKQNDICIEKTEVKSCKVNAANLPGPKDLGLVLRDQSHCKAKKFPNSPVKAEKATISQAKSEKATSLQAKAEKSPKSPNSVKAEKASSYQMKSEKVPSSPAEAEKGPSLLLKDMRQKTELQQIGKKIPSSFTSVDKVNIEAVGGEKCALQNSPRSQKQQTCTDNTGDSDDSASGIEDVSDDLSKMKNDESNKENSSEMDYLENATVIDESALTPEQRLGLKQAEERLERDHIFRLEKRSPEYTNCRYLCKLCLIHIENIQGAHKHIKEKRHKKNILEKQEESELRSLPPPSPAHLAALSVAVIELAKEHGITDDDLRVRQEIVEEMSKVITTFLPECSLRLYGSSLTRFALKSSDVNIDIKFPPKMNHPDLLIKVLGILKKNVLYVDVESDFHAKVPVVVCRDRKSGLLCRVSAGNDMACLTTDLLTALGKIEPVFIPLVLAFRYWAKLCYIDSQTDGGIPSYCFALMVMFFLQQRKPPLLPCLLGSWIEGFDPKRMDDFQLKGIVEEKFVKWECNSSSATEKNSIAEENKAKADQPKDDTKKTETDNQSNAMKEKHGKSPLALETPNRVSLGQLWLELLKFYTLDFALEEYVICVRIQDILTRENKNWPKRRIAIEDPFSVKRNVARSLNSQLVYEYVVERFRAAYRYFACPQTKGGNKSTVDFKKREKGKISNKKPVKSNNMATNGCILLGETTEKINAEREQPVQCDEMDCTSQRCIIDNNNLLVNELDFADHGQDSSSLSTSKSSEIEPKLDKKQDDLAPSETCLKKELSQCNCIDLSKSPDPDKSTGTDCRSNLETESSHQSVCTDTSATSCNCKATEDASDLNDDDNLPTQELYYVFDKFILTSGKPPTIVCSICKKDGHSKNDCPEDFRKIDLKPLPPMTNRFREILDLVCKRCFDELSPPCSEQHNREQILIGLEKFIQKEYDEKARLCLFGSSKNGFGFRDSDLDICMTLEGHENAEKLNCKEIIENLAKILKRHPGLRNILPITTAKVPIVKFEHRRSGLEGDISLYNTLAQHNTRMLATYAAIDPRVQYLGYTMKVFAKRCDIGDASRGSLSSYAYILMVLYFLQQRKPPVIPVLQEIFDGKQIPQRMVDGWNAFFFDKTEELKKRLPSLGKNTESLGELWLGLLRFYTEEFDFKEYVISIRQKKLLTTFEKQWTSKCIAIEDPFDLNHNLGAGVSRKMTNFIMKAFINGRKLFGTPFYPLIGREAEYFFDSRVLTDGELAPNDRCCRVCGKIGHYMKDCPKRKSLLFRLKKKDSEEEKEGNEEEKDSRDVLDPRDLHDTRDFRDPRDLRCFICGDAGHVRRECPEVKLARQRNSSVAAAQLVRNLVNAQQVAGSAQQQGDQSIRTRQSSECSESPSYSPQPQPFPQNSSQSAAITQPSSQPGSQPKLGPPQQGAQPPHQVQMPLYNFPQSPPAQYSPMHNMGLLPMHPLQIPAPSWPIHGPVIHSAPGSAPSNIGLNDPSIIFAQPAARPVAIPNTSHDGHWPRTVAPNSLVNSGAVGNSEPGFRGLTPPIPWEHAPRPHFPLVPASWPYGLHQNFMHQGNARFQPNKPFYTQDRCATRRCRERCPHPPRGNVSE
UniProt O95139, whole entry: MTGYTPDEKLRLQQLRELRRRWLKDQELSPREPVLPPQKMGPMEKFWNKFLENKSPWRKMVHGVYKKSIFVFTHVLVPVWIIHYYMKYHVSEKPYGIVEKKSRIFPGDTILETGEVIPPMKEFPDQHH
UniProt O75521: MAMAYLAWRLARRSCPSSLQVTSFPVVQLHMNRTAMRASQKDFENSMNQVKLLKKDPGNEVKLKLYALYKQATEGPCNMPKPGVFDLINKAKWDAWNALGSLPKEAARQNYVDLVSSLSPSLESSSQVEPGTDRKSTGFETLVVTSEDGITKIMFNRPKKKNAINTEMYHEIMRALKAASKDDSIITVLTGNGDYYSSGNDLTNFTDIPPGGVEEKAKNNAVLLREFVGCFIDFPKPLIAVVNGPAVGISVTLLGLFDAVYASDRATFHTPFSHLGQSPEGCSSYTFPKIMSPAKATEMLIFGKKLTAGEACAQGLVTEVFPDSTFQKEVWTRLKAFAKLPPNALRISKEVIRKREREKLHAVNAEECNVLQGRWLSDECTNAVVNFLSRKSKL
UniProt Q9BUJ2: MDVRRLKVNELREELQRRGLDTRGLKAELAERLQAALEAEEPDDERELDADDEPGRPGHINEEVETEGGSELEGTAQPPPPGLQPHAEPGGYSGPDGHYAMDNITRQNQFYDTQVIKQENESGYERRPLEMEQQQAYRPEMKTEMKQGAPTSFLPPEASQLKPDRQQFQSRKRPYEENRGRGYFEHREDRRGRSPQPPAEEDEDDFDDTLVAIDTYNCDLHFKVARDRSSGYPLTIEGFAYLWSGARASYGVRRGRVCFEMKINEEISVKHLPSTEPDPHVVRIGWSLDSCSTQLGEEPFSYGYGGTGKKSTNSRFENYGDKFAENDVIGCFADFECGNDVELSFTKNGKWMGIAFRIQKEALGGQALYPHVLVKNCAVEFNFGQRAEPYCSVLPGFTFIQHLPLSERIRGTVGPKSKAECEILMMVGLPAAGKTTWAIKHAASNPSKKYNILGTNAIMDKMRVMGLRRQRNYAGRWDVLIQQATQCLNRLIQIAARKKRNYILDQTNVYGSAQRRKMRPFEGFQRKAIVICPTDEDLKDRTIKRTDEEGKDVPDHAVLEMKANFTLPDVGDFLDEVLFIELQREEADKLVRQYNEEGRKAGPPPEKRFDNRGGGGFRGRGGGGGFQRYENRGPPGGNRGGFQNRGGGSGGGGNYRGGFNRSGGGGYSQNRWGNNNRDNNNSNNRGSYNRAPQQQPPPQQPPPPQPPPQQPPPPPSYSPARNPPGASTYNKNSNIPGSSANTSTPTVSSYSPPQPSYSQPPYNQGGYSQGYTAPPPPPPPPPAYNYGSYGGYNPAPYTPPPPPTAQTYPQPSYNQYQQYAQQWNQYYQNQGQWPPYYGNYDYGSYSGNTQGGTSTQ
UniProt Q6DN90: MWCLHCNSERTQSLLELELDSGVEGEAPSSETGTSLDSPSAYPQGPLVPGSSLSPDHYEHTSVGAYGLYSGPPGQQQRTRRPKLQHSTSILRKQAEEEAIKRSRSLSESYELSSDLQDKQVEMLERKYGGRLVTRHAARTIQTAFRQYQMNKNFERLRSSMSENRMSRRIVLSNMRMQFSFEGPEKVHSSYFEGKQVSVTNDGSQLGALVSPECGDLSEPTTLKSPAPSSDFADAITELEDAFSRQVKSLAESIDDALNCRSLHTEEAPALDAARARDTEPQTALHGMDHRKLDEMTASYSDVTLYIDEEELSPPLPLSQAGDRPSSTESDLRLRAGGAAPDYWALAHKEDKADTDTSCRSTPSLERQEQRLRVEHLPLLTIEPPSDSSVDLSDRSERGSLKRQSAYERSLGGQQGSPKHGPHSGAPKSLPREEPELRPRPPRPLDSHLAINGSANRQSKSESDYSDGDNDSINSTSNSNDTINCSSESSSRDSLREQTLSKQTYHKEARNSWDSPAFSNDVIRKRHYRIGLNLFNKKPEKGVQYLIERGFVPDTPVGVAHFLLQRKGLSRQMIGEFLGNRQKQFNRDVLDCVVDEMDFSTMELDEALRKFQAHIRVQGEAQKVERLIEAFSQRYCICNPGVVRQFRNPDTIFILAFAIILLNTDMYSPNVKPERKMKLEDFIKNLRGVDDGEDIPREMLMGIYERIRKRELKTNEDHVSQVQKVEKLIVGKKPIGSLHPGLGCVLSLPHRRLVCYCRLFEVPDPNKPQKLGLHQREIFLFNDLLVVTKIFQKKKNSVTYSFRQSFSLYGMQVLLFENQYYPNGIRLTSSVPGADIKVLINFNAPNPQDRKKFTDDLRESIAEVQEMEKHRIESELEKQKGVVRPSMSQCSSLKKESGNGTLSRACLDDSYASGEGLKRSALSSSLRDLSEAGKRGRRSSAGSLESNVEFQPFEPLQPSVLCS

± gives the standard deviation of the averaged measurements. This is a selection; strong and weak results do not stand in their true shares. Small differences around the control level are noise.

As for A0A0C4DGC9|Q8TDR2 (UniProt Q8TDR2), the NP40-soluble protein abundance runs as follows: (concentration: 0.1mM) 1.07 ± 0.096; (concentration: 0.5mM) 1.11 ± 0.071.

Take A0A0C4DFM1|Q92544 (UniProt Q92544): the NP40-soluble protein abundance is 1.11 ± 0.15 (concentration: 0.1mM) and 1.06 ± 0.066 (concentration: 0.5mM).

Consider “A0A0B4J294|H3BP13 and related entries (UniProt Q9UL33)”, for which the NP40-soluble protein abundance by setting is: (concentration: 0.1mM) 0.9608 ± 0.0047; (concentration: 0.5mM) 0.98 ± 0.022.

On to “A0A0C4DFY0|Q14242 and related entries (UniProt Q14242)”, for which the NP40-soluble protein abundance (concentration: 0.1mM) was 0.767 ± 0.15 and the NP40-soluble protein abundance (concentration: 0.5mM) was found to be 0.785 ± 0.066.

A0A0D9SG71|P49459 (UniProt P49459): the NP40-soluble protein abundance runs as follows: (concentration: 0.1mM) 1.08 ± 0.062; (concentration: 0.5mM) 1.05 ± 0.062.

For A0A0A0MT33|Q9UPN6 (UniProt Q9UPN6), the NP40-soluble protein abundance (concentration: 0.1mM) worked out at 1.02 ± 0.046 and the NP40-soluble protein abundance (concentration: 0.5mM) was 1.07 ± 0.081.

“A0A0A0MRZ4|E7EMV7 and related entries (UniProt Q15025)”: the NP40-soluble protein abundance reads like this: (concentration: 0.1mM) 0.943 ± 0.098; (concentration: 0.5mM) 0.94 ± 0.045.

For the target A0A087WVN1|Q5JPI9 (UniProt Q5JPI9), the NP40-soluble protein abundance is, setting by setting: (concentration: 0.1mM) 1.05 ± 0.0057; (concentration: 0.5mM) 1.02 ± 0.055.

Consider “A0A0A6YYL4|P57737-3|P57737-4 (UniProt P57737)”, for which the NP40-soluble protein abundance is, setting by setting: (concentration: 0.1mM) 1 ± 0.022; (concentration: 0.5mM) 0.989 ± 0.016.

Regarding A0A087X0W9|Q8N6M0 (UniProt Q8N6M0), the NP40-soluble protein abundance is, setting by setting: (concentration: 0.1mM) 0.974 ± 0.015; (concentration: 0.5mM) 0.972 ± 0.054.

For the target A0A0A0MT23 (UniProt P27448), the NP40-soluble protein abundance (concentration: 0.1mM) was 1.07 ± 0.038 and the NP40-soluble protein abundance (concentration: 0.5mM) was 1.21 ± 0.016.

With A0A0C4DG89|Q7L014 (UniProt Q7L014), the NP40-soluble protein abundance by setting is: (concentration: 0.1mM) 1.04 ± 0.024; (concentration: 0.5mM) 1.13 ± 0.052.

Consider “A0A087WVF4|O14646 and related entries (UniProt O14646)”, for which the NP40-soluble protein abundance reads like this: (concentration: 0.1mM) 1.01 ± 0.017; (concentration: 0.5mM) 0.987 ± 0.068.

With “A0A087WZ30|A0A087X072|O94761 (UniProt O94761)”, the NP40-soluble protein abundance runs as follows: (concentration: 0.1mM) 1.02 ± 0.078; (concentration: 0.5mM) 0.929 ± 0.23.

On to A0A087WT30|Q8N5I9 (UniProt Q8N5I9), for which the NP40-soluble protein abundance (concentration: 0.1mM) worked out at 0.969 ± 0.015 and the NP40-soluble protein abundance (concentration: 0.5mM) was determined as 0.975 ± 0.07.

Take A0A0A6YY92|P30566 (UniProt P30566): the NP40-soluble protein abundance (concentration: 0.1mM) is 1.04 ± 0.091 and the NP40-soluble protein abundance (concentration: 0.5mM) worked out at 1.05 ± 0.076.

With “A0A087WU02|F8VPA6 and related entries (UniProt Q96RQ1)”, the NP40-soluble protein abundance (concentration: 0.1mM) came out at 1.01 ± 0.11 and the NP40-soluble protein abundance (concentration: 0.5mM) was determined as 0.971 ± 0.041.

Consider A0A0A6YYC8|I3L1I5 (UniProt I3L1I5), for which the NP40-soluble protein abundance is, setting by setting: (concentration: 0.1mM) 0.989 ± 0.051; (concentration: 0.5mM) 0.96 ± 0.026.

Turning to “A0A087WYM3|Q8IXJ6 and related entries (UniProt Q8IXJ6)”, the NP40-soluble protein abundance by setting is: (concentration: 0.1mM) 0.953 ± 0.047; (concentration: 0.5mM) 0.984 ± 0.053.

A0A087WTJ2|Q8WWP7 (UniProt Q8WWP7): the NP40-soluble protein abundance is 1.06 ± 0.045 (concentration: 0.1mM) and 1.05 ± 0.03 (concentration: 0.5mM).

As to “A0A087WV23|Q5T123 and related entries (UniProt Q9H299)”, the NP40-soluble protein abundance was 0.897 ± 0.059 (concentration: 0.1mM) and 0.854 ± 0.1 (concentration: 0.5mM).

As for “A0A087WWM4|F8WAN9 and related entries (UniProt Q9P2T1)”, the NP40-soluble protein abundance (concentration: 0.1mM) worked out at 1.01 ± 0.07 and the NP40-soluble protein abundance (concentration: 0.5mM) is 1.01 ± 0.052.

Consider “A0A087X0I4|M0QXB4 and related entries (UniProt O14579)”, for which the NP40-soluble protein abundance came out at 1.02 ± 0.037 (concentration: 0.1mM) and 1.02 ± 0.012 (concentration: 0.5mM).

In the case of A0A087WU53|Q9H0U3 (UniProt Q9H0U3), the NP40-soluble protein abundance (concentration: 0.1mM) was determined as 0.984 ± 0.026 and the NP40-soluble protein abundance (concentration: 0.5mM) is 0.993 ± 0.024.

Take “A0A087X1N3|O75818 and related entries (UniProt O75818)”: the NP40-soluble protein abundance is, setting by setting: (concentration: 0.1mM) 1.06 ± 0.068; (concentration: 0.5mM) 1.09 ± 0.039.

In the case of “A0A087WVQ6|Q00610 and related entries (UniProt Q00610)”, the NP40-soluble protein abundance runs as follows: (concentration: 0.1mM) 1.08 ± 0.071; (concentration: 0.5mM) 1.13 ± 0.053.

For A0A0C4DFM7|Q5TAX3 (UniProt Q5TAX3), the NP40-soluble protein abundance is, setting by setting: (concentration: 0.1mM) 1.02 ± 0.03; (concentration: 0.5mM) 1.03 ± 0.07.

As to “A0A0C3SFZ9|O14526 and related entries (UniProt O14526)”, the NP40-soluble protein abundance is 1.02 ± 0.011 (concentration: 0.1mM) and 1.03 ± 0.069 (concentration: 0.5mM).

On to A0A087WZX2|O95139 (UniProt O95139), for which the NP40-soluble protein abundance by setting is: (concentration: 0.1mM) 0.852 ± 0.19; (concentration: 0.5mM) 0.8 ± 0.24.

On to “A0A0A0MSA9|A0A0C4DG49|P15151 and related entries (UniProt P15151)”, for which the NP40-soluble protein abundance is 0.966 ± 0.017 (concentration: 0.1mM) and 0.861 ± 0.2 (concentration: 0.5mM).

As to “A0A0A0MSY7|E5KNQ5 and related entries (UniProt O00142)”, the NP40-soluble protein abundance reads like this: (concentration: 0.1mM) 1.14 ± 0.058; (concentration: 0.5mM) 0.992 ± 0.11.

Consider “A0A0C4DGA2|O75521 and related entries (UniProt O75521)”, for which the NP40-soluble protein abundance reads like this: (concentration: 0.1mM) 1.01 ± 0.056; (concentration: 0.5mM) 1.04 ± 0.043.

For “A0A0A0MRA5|Q9BUJ2-2|Q9BUJ2-4|Q9BUJ2 (UniProt Q9BUJ2)”, the NP40-soluble protein abundance reads like this: (concentration: 0.1mM) 1.02 ± 0.026; (concentration: 0.5mM) 1.05 ± 0.048.

In the case of “A0A087WUS0|E7ETK0 and related entries (UniProt P62847)”, the NP40-soluble protein abundance (concentration: 0.1mM) came to 0.877 ± 0.09 and the NP40-soluble protein abundance (concentration: 0.5mM) turned out to be 0.861 ± 0.12.

Consider “A0A087WXF8|A0A087WXU5|A0A087WYF0|A0A0D9SEW3|Q9NP64 and related entries (UniProt Q9NP64)”, for which the NP40-soluble protein abundance was found to be 0.86 ± 0.11 (concentration: 0.1mM) and 0.905 ± 0.092 (concentration: 0.5mM).

Turning to A0A087WTW5|Q9UKL3 (UniProt Q9UKL3), the NP40-soluble protein abundance (concentration: 0.1mM) was 0.98 ± 0.075 and the NP40-soluble protein abundance (concentration: 0.5mM) turned out to be 1.01 ± 0.095.

For the target A0A0A0MSF9|Q8N954 (UniProt Q8N954), the NP40-soluble protein abundance runs as follows: (concentration: 0.1mM) 0.909 ± 0.049; (concentration: 0.5mM) 0.931 ± 0.057.

Consider “A0A0A0MSB8|Q9UPT5 and related entries (UniProt Q9UPT5)”, for which the NP40-soluble protein abundance is 1.03 ± 0.046 (concentration: 0.1mM) and 1.03 ± 0.061 (concentration: 0.5mM).

As for A0A087WWK8|Q6DN90 (UniProt Q6DN90), the NP40-soluble protein abundance is 0.999 ± 0.15 (concentration: 0.1mM) and 1.06 ± 0.18 (concentration: 0.5mM).

For “A0A087X0M1|H0YAA8 and related entries (UniProt Q9H204)”, the NP40-soluble protein abundance (concentration: 0.1mM) worked out at 0.897 ± 0.26 and the NP40-soluble protein abundance (concentration: 0.5mM) was found to be 0.842 ± 0.29.

A0A087WYT3|Q15185 (UniProt Q15185): the NP40-soluble protein abundance runs as follows: (concentration: 0.1mM) 0.933 ± 0.08; (concentration: 0.5mM) 0.96 ± 0.067.

The record behind these values is the supplement of paper PMC6411743.
